According to paper PMC7819943, “Rice protein-binding microarrays: a tool to detect cis-acting elements near promoter regions in rice”:
The list shows a part of the results.

Biological target: T1, OsSMF1 (Oryza sativa, UniProt Q6ZLB0 1-436)
T1 sequence: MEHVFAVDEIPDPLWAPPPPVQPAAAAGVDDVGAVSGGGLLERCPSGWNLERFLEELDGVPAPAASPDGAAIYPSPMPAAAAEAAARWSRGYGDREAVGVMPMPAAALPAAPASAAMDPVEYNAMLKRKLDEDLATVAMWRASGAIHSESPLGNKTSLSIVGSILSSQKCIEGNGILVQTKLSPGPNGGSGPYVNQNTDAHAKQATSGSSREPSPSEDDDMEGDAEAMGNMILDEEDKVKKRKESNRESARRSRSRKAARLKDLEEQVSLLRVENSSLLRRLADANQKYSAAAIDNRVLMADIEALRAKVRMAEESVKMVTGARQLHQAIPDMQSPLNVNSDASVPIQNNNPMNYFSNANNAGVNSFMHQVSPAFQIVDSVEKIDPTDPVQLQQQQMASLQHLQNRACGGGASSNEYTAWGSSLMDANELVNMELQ
Assay: protein-binding microarray (RPBM); PBS, 2% BSA, 51.3 ng/ul salmon testes DNA, 50 uM zinc acetate, 200 nM TF, 25 C, 1 h; high values mean tight binding
Conditions: protein: recombinant; tags: N-terminal polyhistidine and DsRed monomer fusion (pET32a); chain copies: 2; label: CyDye5-dUTP incorporated in the synthesized complementary strand; 3' TTTTT single-stranded linker to array surface; dsDNA, one strand shown
Outline: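 Ni–NTA purification followed expression in E. coli BL21-CodonPlus of transcription factors fused N-terminally to a polyhistidine tag and DsRed. At 200 nM in PBS with 2% BSA, salmon testes DNA and 50 µM zinc acetate, the protein was incubated for 1 h at 25 °C with a custom Agilent array that had been primer-extended with Cy5-dUTP and blocked with 2% BSA. After washing, the array was read on an Axon 4000B scanner. The binding signal is per-feature fluorescence intensity in arbitrary units.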

Row | Sequence | binding signal
1 | CGACCGGATTAATCAGCAGGGGATCTGGGATTATTATTACCGGAGTCACCTAGTGCAG | 3640 fluorescence intensity (a.u.)
2 | ACTTAACCGCAACGTCATCTACCAGAATCTTTCAACTCGACGGAGTCACCTAGTGCAG | 6180 fluorescence intensity (a.u.)
3 | ATCGAAACGATGACACATGCTCTCGTCAGCCATGGAGATGCGGAGTCACCTAGTGCAG | 7940 fluorescence intensity (a.u.)
4 | AACCAAATCTCCACGCCCTCAAATCCAACAAGCACGAGCTCGGAGTCACCTAGTGCAG | 3140 fluorescence intensity (a.u.)
5 | AAGTAAGTTGGCGCTGACCTTGGCTACTTAGAGCCCGGCCCGGAGTCACCTAGTGCAG | 3960 fluorescence intensity (a.u.)
6 | AGGAGGAGAAGAAGGTTCTGGAAGCTTCTGGACGGCCCCACGGAGTCACCTAGTGCAG | 25200 fluorescence intensity (a.u.)
7 | CTGCAGTGGAGTTGTGGAGCTATCTAAACCCAGCTCCACACGGAGTCACCTAGTGCAG | 3220 fluorescence intensity (a.u.)
8 | AGCAACGTAGCTCAAACGTTGGTCAATCCATGTGCAATTACGGAGTCACCTAGTGCAG | 3150 fluorescence intensity (a.u.)
9 | TCGCCGGCGACCTCCCGCCCAAATCCGACGCCACCGCGCGCGGAGTCACCTAGTGCAG | 3640 fluorescence intensity (a.u.)
10 | GTGCGGCGGTGGGGTTGGTCGAGGCGGCCGAGGGCTCGTCCGGAGTCACCTAGTGCAG | 3320 fluorescence intensity (a.u.)
11 | AAAGCCACTTGCCATGTGTCAATCAAACTCAATATTTTCTCGGAGTCACCTAGTGCAG | 4520 fluorescence intensity (a.u.)
12 | CAACCATCCAAGACTACCGTGGCAGCTTCTCAGCCCAAGGCGGAGTCACCTAGTGCAG | 3670 fluorescence intensity (a.u.)
13 | AAGTAGCGGTGGTGGTTGTCTGGCTGACACCACCATCTGCCGGAGTCACCTAGTGCAG | 6120 fluorescence intensity (a.u.)
14 | CTCTCCCGCTGCCGCCGCCTCCGGCTTCCCCGTCGCCTCGCGGAGTCACCTAGTGCAG | 3260 fluorescence intensity (a.u.)
15 | CAAGTTGCATGCGTGTCTTCTTCCTACCATCACTTCTCTCCGGAGTCACCTAGTGCAG | 5900 fluorescence intensity (a.u.)
16 | TATCAAATATCCGATGTGACATGTGACATGACATCTAAAACGGAGTCACCTAGTGCAG | 3500 fluorescence intensity (a.u.)
17 | ATTCTGTTGAGGGATGGATGGATCGGTTTTACCATTAATGCGGAGTCACCTAGTGCAG | 3710 fluorescence intensity (a.u.)
18 | CGGGGCACGCCACGGGTGCACATACGTGATGCACACGTACCGGAGTCACCTAGTGCAG | 5170 fluorescence intensity (a.u.)
19 | TCGAGGTGAGCAGAGAGAGAGGATTGAAGAAGAAGGAGAACGGAGTCACCTAGTGCAG | 35800 fluorescence intensity (a.u.)
20 | GCTTGTGCCGAGCCAGCTCACGCCCAATTCATGACGCCTCCGGAGTCACCTAGTGCAG | 4580 fluorescence intensity (a.u.)
21 | GTGGTGGTGGTGTGTGAGCTCGGGGCTTGGGGTTTTGCGGCGGAGTCACCTAGTGCAG | 3650 fluorescence intensity (a.u.)

Rewritten in markdown: entries from further up

| Row | Sequence | binding signal |
| --- | --- | --- |
| 5 | AAGTAAGTTGGCGCTGACCTTGGCTACTTAGAGCCCGGCCCGGAGTCACCTAGTGCAG | 3960 fluorescence intensity (a.u.) |
| 6 | AGGAGGAGAAGAAGGTTCTGGAAGCTTCTGGACGGCCCCACGGAGTCACCTAGTGCAG | 25200 fluorescence intensity (a.u.) |

The results go on:

Row | Sequence | binding signal
22 | AGAGAGACGTGGGGTTGTCCATGTCATGTTTCTCGTACAACGGAGTCACCTAGTGCAG | 5800 fluorescence intensity (a.u.)
23 | CCGTGCCCGCGCCCGCGCCGCCACATGGAGCCGAAGCCAACGGAGTCACCTAGTGCAG | 3360 fluorescence intensity (a.u.)
24 | ACGGGCAAAGCGGCCGCCACGTAGACGTGTACATCTTCTCCGGAGTCACCTAGTGCAG | 18000 fluorescence intensity (a.u.)
25 | CTGCGACGCGTCGCTGCCGTACGCGGACCGGGTGCGGGACCGGAGTCACCTAGTGCAG | 4180 fluorescence intensity (a.u.)
26 | ATACCTCGGCGTGATGACTCCACCGCGCGATGACTCCGCCCGGAGTCACCTAGTGCAG | 4390 fluorescence intensity (a.u.)
27 | GTCATATTTATTTGGATGATGTGGCATGTTCTGGTGGTGACGGAGTCACCTAGTGCAG | 15700 fluorescence intensity (a.u.)
28 | ACGCGTCCTTATCGGTTACTCCTGCCCATGTGGCTCCTCGCGGAGTCACCTAGTGCAG | 3350 fluorescence intensity (a.u.)
29 | GTGGTAGATTCTCGTCCCAAGCTTGAGGGACAAGGATTACCGGAGTCACCTAGTGCAG | 23300 fluorescence intensity (a.u.)
30 | ATTATTTTGTTTTGAGTTGGACTAGTCACACAAATTACCGCGGAGTCACCTAGTGCAG | 3470 fluorescence intensity (a.u.)
31 | GCCGGTGATTGGCGTGGCGTGGCGTGGCGTGGCGCGGTGTCGGAGTCACCTAGTGCAG | 5210 fluorescence intensity (a.u.)
32 | TTAACGTGTACCACTACATGCATGCAGTGACGACAGTCAGCGGAGTCACCTAGTGCAG | 3150 fluorescence intensity (a.u.)
33 | TCTTTATGATTGCTGCCAACTAATGTTTTCTTTCATACTACGGAGTCACCTAGTGCAG | 4210 fluorescence intensity (a.u.)
34 | TTTGGGCTTTTGGCTGGACGCGTCACGCGCGCGTTATTATCGGAGTCACCTAGTGCAG | 5160 fluorescence intensity (a.u.)
35 | GCTCCACGTACGTACGCGTGTCGCCTCGCGCCGAAGCAAGCGGAGTCACCTAGTGCAG | 5100 fluorescence intensity (a.u.)
36 | CTCTCTTTCGCAGAAATCCTGGGCGCCTCTCTGTCAGTTTCGGAGTCACCTAGTGCAG | 3270 fluorescence intensity (a.u.)
37 | CAACATATTTTCATCATGCATCGACTTTACCTTATATCCTCGGAGTCACCTAGTGCAG | 3150 fluorescence intensity (a.u.)
38 | CCGCGTGCTGACGACGATGCGCGGGACCGTGGGCTACCTGCGGAGTCACCTAGTGCAG | 9360 fluorescence intensity (a.u.)
39 | TAGCAATCTTTAGATAAGATATGTTCCATCATTCACTTAACGGAGTCACCTAGTGCAG | 26800 fluorescence intensity (a.u.)
40 | ACCACACGGCATCCGAAGAAGCCCACGTCCCCGTCGCGCCCGGAGTCACCTAGTGCAG | 4960 fluorescence intensity (a.u.)
41 | ACACATGCTTCAAGTGGCTAAGAGGGCATCCTCCCTTTTACGGAGTCACCTAGTGCAG | 16000 fluorescence intensity (a.u.)
42 | TTTGCGAACGTAATTCCATTAATTAAACACACGTCTATATCGGAGTCACCTAGTGCAG | 3220 fluorescence intensity (a.u.)
